The list shows a part of the results.

In the experiment the target is T1, OsSMF1 (Oryza sativa, UniProt Q6ZLB0 1-436).
T1 sequence: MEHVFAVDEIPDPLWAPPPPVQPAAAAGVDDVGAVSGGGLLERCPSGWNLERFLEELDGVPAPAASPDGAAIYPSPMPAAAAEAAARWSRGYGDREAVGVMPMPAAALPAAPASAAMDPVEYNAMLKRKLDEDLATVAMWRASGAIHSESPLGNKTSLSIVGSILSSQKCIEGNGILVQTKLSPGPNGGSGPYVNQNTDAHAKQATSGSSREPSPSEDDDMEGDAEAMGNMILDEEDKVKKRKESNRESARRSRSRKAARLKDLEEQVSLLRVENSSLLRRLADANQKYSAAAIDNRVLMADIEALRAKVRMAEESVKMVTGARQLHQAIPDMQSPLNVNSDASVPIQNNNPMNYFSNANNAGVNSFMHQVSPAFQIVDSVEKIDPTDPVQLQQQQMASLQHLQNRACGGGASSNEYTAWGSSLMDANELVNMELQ
Kind of experiment: protein-binding microarray (RPBM); PBS, 2% BSA, 51.3 ng/ul salmon testes DNA, 50 uM zinc acetate, 200 nM TF, 25 C, 1 h; high values mean tight binding. The following applies: protein: recombinant; tags: N-terminal polyhistidine and DsRed monomer fusion (pET32a); chain copies: 2; label: CyDye5-dUTP incorporated in the synthesized complementary strand; 3' TTTTT single-stranded linker to array surface; dsDNA, one strand shown. The procedure, abridged:
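Binding signal is defined as the fluorescence intensity of each feature in arbitrary units, read on an Axon 4000B scanner. Transcription factors with N-terminal polyhistidine and DsRed fusions came from E. coli BL21-CodonPlus and were purified on Ni–NTA. They were incubated at 200 nM for 1 h at 25 °C on a custom Agilent array that had been made double-stranded with Cy5-dUTP, with 50 µM zinc acetate present, and the array was washed.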
As to “AAGAGAGTACACCACATGCCTACGCAGCCTCATGTCCAGTCGGAGTCACCTAGTGCAG”, the binding signal is 3440 fluorescence intensity (a.u.).

On to “GTGAGTGATCACGCACGTCAGACTGATCAAATCATGATGTCGGAGTCACCTAGTGCAG”, for which the binding signal is 6710 fluorescence intensity (a.u.). Consider “GCTACTAGTAGGTACCAGCCACATCGACAATAAAAGCTCCCGGAGTCACCTAGTGCAG”, for which the binding signal was 30400 fluorescence intensity (a.u.). The value for “CTTACACGGTCACGAGTTCGCAGCCATCTTCGCCATGATCCGGAGTCACCTAGTGCAG” was 3290 fluorescence intensity (a.u.). The value for “GCTTTGGAACTCCTTTAGATTATAATCCAACTCAATTCAACGGAGTCACCTAGTGCAG” was 4590 fluorescence intensity (a.u.); that for “GAAAAGGCCCAATTTATCCAGGCTATACATTGGGCTTTTGCGGAGTCACCTAGTGCAG” was 3190 fluorescence intensity (a.u.). Regarding “CAAACTCGATCGAATCTGCCAGCTCACTCATGAGCTTAAGCGGAGTCACCTAGTGCAG”, the binding signal was 8450 fluorescence intensity (a.u.). Next, “GGTGCTCACGCGTTGCTTTGTCCCGCGCTGCCACCTCCTCCGGAGTCACCTAGTGCAG”: 3350 fluorescence intensity (a.u.). Next, “AGTGAAAGCATTGAACTACCAGTTGCGTCAGGAAATGTATCGGAGTCACCTAGTGCAG”: 4160 fluorescence intensity (a.u.). Next, “TTCGCCATGATCACAGCCACGTACACAACAAACGCGGCCTCGGAGTCACCTAGTGCAG”: 5800 fluorescence intensity (a.u.); “CGCGACTTGTCGCATTTGAACGTGTCGAGTCACAATTGTGCGGAGTCACCTAGTGCAG”: 32600 fluorescence intensity (a.u.); “CGTCGTAGTCGCGGCGGGCGCGGGAGGTGGTCTCCGGCGGCGGAGTCACCTAGTGCAG”: 24400 fluorescence intensity (a.u.). “ACAGCAAACAAACGTAACACCTTAACACGTCATGCAGTTTCGGAGTCACCTAGTGCAG”: the binding signal is 15100 fluorescence intensity (a.u.). The value for “GACAGGCTCAGTGTCACATCCCTCTAAAATCTGTTATATTCGGAGTCACCTAGTGCAG” was 3340 fluorescence intensity (a.u.); that for “GTGAGTTCATCATATGGCGTGTTACGTGTACATGTGTCTACGGAGTCACCTAGTGCAG” was 6410 fluorescence intensity (a.u.); that for “CCTCTCTCATTATCCTCTCGCGCTCGAGTGTGTGTGGCGACGGAGTCACCTAGTGCAG” was 3260 fluorescence intensity (a.u.). Next, “CAAGTAGTACAAAAGATTACCGTGGCGTTAGCACGGGCATCGGAGTCACCTAGTGCAG”: 3660 fluorescence intensity (a.u.); “ACACTAGTAACAAAACTTGGCAATTTGGCATTTGGCATTTCGGAGTCACCTAGTGCAG”: 3300 fluorescence intensity (a.u.); “GTTTATTTGGGCCTGATTGGCACAGATGGTAGTGCCATGTCGGAGTCACCTAGTGCAG”: 3500 fluorescence intensity (a.u.). Consider “AGGTACGTAAATTTTATATATTCCATATGAGCTCTAAATACGGAGTCACCTAGTGCAG”, for which the binding signal was 3580 fluorescence intensity (a.u.).

For “ACCACAAGGCGTGAGCGAGTGACACGTGGCGCGTTGCATCCGGAGTCACCTAGTGCAG”, the binding signal was 28400 fluorescence intensity (a.u.).

For “GGTTCCAATTCGTCGCCTGATACTCCGATTCGAGTTCTTGCGGAGTCACCTAGTGCAG”, the binding signal was 3240 fluorescence intensity (a.u.).

As for “CCTCATGACATACCTCCAACACTTACAGATATAGAATATTCGGAGTCACCTAGTGCAG”, the binding signal is 3180 fluorescence intensity (a.u.). The value for “CCAATCCGTTTATTTACACGAGAACGTACGTACGCGCGCTCGGAGTCACCTAGTGCAG” was 3240 fluorescence intensity (a.u.); that for “TTAAATGAATCATTTTGTTCCTATTTCTAAAATAAACTATCGGAGTCACCTAGTGCAG” was 3380 fluorescence intensity (a.u.). In the case of “AGTTAAGGGACCTCCGATGAACTTATTCCTTAGAAACTTGCGGAGTCACCTAGTGCAG”, the binding signal is 34200 fluorescence intensity (a.u.). As to “ATATCCATATCAAATTAAGCCAGGTTTGTAATTAATAACTCGGAGTCACCTAGTGCAG”, the binding signal is 9630 fluorescence intensity (a.u.). Take “CCGGCCGGGCGGTCGCTGTTGCTGACTTGACCAGAGACGACGGAGTCACCTAGTGCAG”: the binding signal was 3580 fluorescence intensity (a.u.). Next, “ATCTTCTTCCCTTCTCTCCAGTCGACCCTCTCTCCATCTTCGGAGTCACCTAGTGCAG”: 20300 fluorescence intensity (a.u.). Take “TCTGTAGAGCAGTATGAGCTAGCCAAGAGAGTTGCACATACGGAGTCACCTAGTGCAG”: the binding signal was 8680 fluorescence intensity (a.u.). Next, “CGACTCAAAGATAAATGATATGTCATCGGCACCTAGCCGACGGAGTCACCTAGTGCAG”: 4200 fluorescence intensity (a.u.).

For “AAGTTCAAGCAAGGCACCAAACCGTTGAAAGGAACTGATGCGGAGTCACCTAGTGCAG”, the binding signal was 6230 fluorescence intensity (a.u.). The value for “GGCAGCTTCATATTCCTCGTCACGGCGAACCCGTCGCCGCCGGAGTCACCTAGTGCAG” was 4520 fluorescence intensity (a.u.); that for “GTGGTCGTGACGTTGTCGACATGACGTACAATCAAGGACGCGGAGTCACCTAGTGCAG” was 6700 fluorescence intensity (a.u.); that for “TTGCCCCTGCTGTTTCGAATGCTTGTCCAAGTCATGTGGACGGAGTCACCTAGTGCAG” was 3860 fluorescence intensity (a.u.). Next, “CTCGTCCCACGCGGCGACCAGCACCGACGTGGCGTGCGTGCGGAGTCACCTAGTGCAG”: 17200 fluorescence intensity (a.u.); “AATCGTGTCCATGGTCTCCACCTCACGGGAGATTCTCCGCCGGAGTCACCTAGTGCAG”: 3830 fluorescence intensity (a.u.); “CGTACCTAGCTTATAATATTGGTGATTCATATGCTGGCCCCGGAGTCACCTAGTGCAG”: 3560 fluorescence intensity (a.u.). The value for “AGATACTGCTGACCAATATAGATACCCTGATGTCCCATCCCGGAGTCACCTAGTGCAG” was 4410 fluorescence intensity (a.u.); that for “GTCTGACCGACATGCAGTGGCCCACATGTCTGTCATACATCGGAGTCACCTAGTGCAG” was 4270 fluorescence intensity (a.u.). Turning to “ACCATGTTGTAATGGCATGACGCCAATCGATATATACTTGCGGAGTCACCTAGTGCAG”, the binding signal is 3910 fluorescence intensity (a.u.). “ATTGCTTCAAACCAGAACGGTTTTGATTCTATGTGGCATACGGAGTCACCTAGTGCAG”: the binding signal is 14800 fluorescence intensity (a.u.).

(Values after publication PMC7819943, “Rice protein-binding microarrays: a tool to detect cis-acting elements near promoter regions in rice”.)
